# Out of some 320,000 compounds screened, about 2,100 (0.66%) were called active. This list was built around the results that the source calls inconclusive (neither active nor inactive); the mix of calls is not that of the screen. Calls follow the shape of the dose curve; as a rule, active = well fitted inhibition curve with a large enough effect in the signal ratio, with a control signal flat (not every such curve was filed as active); inconclusive = small, poorly fitted or top-dose-only effect, or effect the other way, or a change in a side signal; inactive = flat fitted curve, though single readings scatter; the % refers to the signal ratio. A potency beside an inconclusive call is a rough fit, not a confirmed value.
# Assay: qHTS Assay for Lipid Storage Modulators in Drosophila S3 Cells
# Conditions: BODIPY lipid droplet fluorescence, 18-24 h, cells fed with added oleic acid; lipid storage change, negative = inhibition: at 46.1 µM (top of the series) unless noted
# Summary of the method: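 Drosophila S3 cells loaded with oleic acid (400 uM, as added) and compounds at several concentrations; lipid droplets imaged by 488-nm laser-scanning cytometry, 500–530 nm intensity and object ratio to cell channel. Percent activity normalized to 20 uM Triacsin C.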
# % is scaled to controls: 0 for no effect and ±100 for the full control effect; potency is read from the fitted curve at half-maximal effect.
Compound,"lipid storage change, negative = inhibition",Potency,outcome
O=C(O)c1cc(S(=O)(=O)N2CCCCCC2)ccc1Cl,inconclusive: -34.6%,,
CCC1(c2ccccc2)NC(=O)N(CC(=O)Nc2ccc(S(=O)(=O)Nc3ncccn3)cc2)C1=O (configuration not stated),inconclusive: -6.93%,,
Cn1c(CO)cnc1SCc1ccc([N+](=O)[O-])cc1,inconclusive: 15.1%,,
O=c1c2cnn(-c3ccccc3)c2ncn1Cc1ccccc1F,inconclusive: 33.9%,,
Cc1cc(C)cc(OCC(=O)N2N=C(c3cccnc3)CC2(O)C(F)(F)F)c1 (configuration not stated),inconclusive: 29.3%,,
CCn1c(-c2ccccc2O)n[nH]c1=S,inconclusive: -73.3%,,
CCNc1ccc(C(=O)OCC(=O)NC(C)c2ccccc2)cc1[N+](=O)[O-] (configuration not stated),,"inconclusive: 0.291 µM [activator, full curve]",
COc1ccc2cc(C(c3nnnn3Cc3ccccc3)N3CCCCCC3)c(=O)[nH]c2c1 (configuration not stated),inconclusive: 27%,,
CN1CCCC(CN2c3ccccc3Sc3ccccc32)C1 (configuration not stated),inconclusive: 0.211%,,
O=C(Cn1cc(C(F)(F)F)ccc1=O)N/N=C/c1ccccc1,inconclusive: 60.7%,,
CCCN1C(=O)c2cc(C(=O)NCCc3cccc(C)c3)ccc2C1O (configuration not stated),inconclusive: -11%,,
COc1ccc(-n2c(-c3ccc(Cl)cc3Cl)n[nH]c2=S)c(OC)c1,,"inconclusive: 1.46 µM [activator, full curve]",
COCCNC(=O)C(c1ccccc1)N(Cc1cccs1)C(=O)Cn1nnc2ccccc21 (configuration not stated),inconclusive: 15.9%,,
CC(Oc1cccc(Br)c1)C(=O)NNC(=O)CCNC(=O)c1ccccc1Cl (configuration not stated),,"inconclusive: 4.11 µM [falling, full curve]",
CCOC(=O)C1(CC2CC2)CCN(C(=O)c2cc(C3CC3)nc3ccccc23)CC1,,active: 25.9 µM,
COc1ccc(C(=O)NCc2ccc3[nH]c(C)cc3c2)cc1OC,inconclusive: 32.9%,,
O=C(CN1CCCC1)NCC(=O)Nc1ccc(F)cc1,inconclusive: -2.89%,,
O=C(NCC(c1ccco1)N1CCCC1)c1cn(-c2ccccc2)nc1-c1ccc(F)cc1 (configuration not stated),,"inconclusive: 0.103 µM [activator, full curve, poor fit]",
COc1ccc(OC)c(C2=NOC(C(=O)NCc3ccco3)C2)c1 (configuration not stated),,"inconclusive: 29.1 µM [activator, single point]",
O=C(O)CCN1CC2([N+](=O)[O-])C=CC(=O)C([N+](=O)[O-])(C1)C2CC(=O)c1ccccc1 (configuration not stated),,"inconclusive: 29.1 µM [activator, partial curve, poor fit]",
O=C(NCCN1CCOCC1)c1cc(S(=O)(=O)NCCCN2CCCC2=O)ccc1Cl,,"inconclusive: 29.1 µM [falling, single point]",
O=C(Nc1ccccc1F)C1COc2ccccc2O1 (configuration not stated),,,inactive [at 46.1 µM]
CCCNC(=O)c1sc2c(c1C(=O)Nc1ccccn1)CCCC2,inconclusive: 24.1%,,
Cc1ccc(-c2nn(-c3ccccc3)cc2/C=C(\C#N)c2cccc(C#N)c2)o1,,"inconclusive: 2.06 µM [activator, partial curve, poor fit]",

Compound,"lipid storage change, negative = inhibition",Potency,outcome
CC(C)(C)C(=O)Nc1ccc(Oc2ccc3c(c2)C(=O)N(c2ccc(O)cc2)C3=O)cc1,inconclusive: -45.6%,,
COC(=O)c1c(C)[nH]c(C(=O)C(C)OC(=O)c2cc(C)oc2C)c1C (configuration not stated),,"inconclusive: 29.1 µM [cytotoxic, single point]",
Cc1ccccc1OCC(=O)NCCCNC(=O)c1ccco1,,"inconclusive: 29.1 µM [activator, single point]",
O=C(NCCN1CCN(c2ccccc2)CC1)Nc1cccc(Cl)c1,,"inconclusive: 0.0046 µM [falling, full curve, poor fit]",
COc1ccc(S(=O)(=O)n2c([N+](=O)[O-])cnc2C)cc1OC,inconclusive: 26.7%,,
O=C(Cn1nnc2ccccc2c1=O)Nc1ccc2c(c1)CCC2,inconclusive: 2.98%,,
CCS(=O)(=O)N1CCC(C(=O)Nc2cccc(F)c2)CC1,,"inconclusive: 7.31 µM [activator, partial curve, poor fit]",
Cc1onc(-c2ccccc2)c1C(=O)Nc1ccccc1NC(=O)c1c(-c2ccccc2)noc1C,inconclusive: -9.13%,,
CCOc1ccc(OCCC(=O)OCC(=O)Nc2ccc3c(c2)OCO3)cc1,inconclusive,,
CCN(CC)Cc1c(O)c(Cl)cc2c(C)cc(=O)oc12,inconclusive: -31.9%,,
COc1ccc(-c2noc(-c3ccccc3C(=O)Nc3cccc(OC)c3)n2)cc1,inactive: 13.9%,,
CC(=O)Nc1ccc(NC(=O)CSc2ccc3nnc(-c4cccnc4)n3n2)cc1,inconclusive: -5.03%,,
CCN(CC(=O)Nc1ccc(NC(C)=O)cc1)C(=O)/C=C/c1cccs1,inconclusive: 1.71%,,
COc1ccc(-c2[nH]n(-c3ccc([N+](=O)[O-])cc3)c(=O)c2C=NCc2ccccc2)cc1,inconclusive: 5.24%,,
COc1ccccc1NC(=O)N1CCC(NC(=O)C(Cc2ccccc2F)NC(C)=O)CC1 (configuration not stated),,"inconclusive: 0.13 µM [falling, single point]",
COc1ccc(CCC(=O)NC2CCCc3ccccc32)cc1OC (configuration not stated),,"inconclusive: 29.1 µM [activator, partial curve, poor fit]",
CCc1ccc(Nc2cc(=O)n(C3CCCCC3)c(=O)[nH]2)cc1,,"inconclusive: 23.1 µM [rising, single point]",
Cc1ccsc1C(=O)N1CCCC(CCC(=O)NCc2ccccc2F)C1 (configuration not stated),,"inconclusive: 14.6 µM [falling, partial curve, poor fit]",
O=C(c1cc[n+]([O-])cc1)N1CCCC(N2CCN(c3cccc(C(F)(F)F)c3)CC2)C1 (configuration not stated),inconclusive: -31.7%,,
Cn1c(NCCO)nc2c1c(=O)n(Cc1ccc(F)cc1)c(=O)n2C,inconclusive: 14%,,
COc1ccc(C(=O)OCC(=O)c2c[nH]c3ccccc23)cc1OC,inconclusive: -92.5%,,
CCc1nnc(NC(=O)CCC(=O)N2CCN(Cc3ccc(F)cc3)CC2)s1,,"inconclusive: 0.164 µM [activator, full curve, poor fit]",
CCOC(=O)CSc1nc2cc(C(=O)NCC3CCCO3)ccc2c(=O)n1Cc1ccco1 (configuration not stated),,"inconclusive: 3.26 µM [activator, partial curve]",

# Part of the list above, tab-delimited:
Compound	lipid storage change, negative = inhibition	Potency	outcome
CCn1c(-c2ccccc2O)n[nH]c1=S	inconclusive: -73.3%		
CCNc1ccc(C(=O)OCC(=O)NC(C)c2ccccc2)cc1[N+](=O)[O-] (configuration not stated)		inconclusive: 0.291 µM [activator, full curve]	
COc1ccc2cc(C(c3nnnn3Cc3ccccc3)N3CCCCCC3)c(=O)[nH]c2c1 (configuration not stated)	inconclusive: 27%		
CN1CCCC(CN2c3ccccc3Sc3ccccc32)C1 (configuration not stated)	inconclusive: 0.211%		
O=C(Cn1cc(C(F)(F)F)ccc1=O)N/N=C/c1ccccc1	inconclusive: 60.7%		
CCCN1C(=O)c2cc(C(=O)NCCc3cccc(C)c3)ccc2C1O (configuration not stated)	inconclusive: -11%		
COc1ccc(-n2c(-c3ccc(Cl)cc3Cl)n[nH]c2=S)c(OC)c1		inconclusive: 1.46 µM [activator, full curve]	
COCCNC(=O)C(c1ccccc1)N(Cc1cccs1)C(=O)Cn1nnc2ccccc21 (configuration not stated)	inconclusive: 15.9%		
CC(Oc1cccc(Br)c1)C(=O)NNC(=O)CCNC(=O)c1ccccc1Cl (configuration not stated)		inconclusive: 4.11 µM [falling, full curve]	
CCOC(=O)C1(CC2CC2)CCN(C(=O)c2cc(C3CC3)nc3ccccc23)CC1		active: 25.9 µM	
COc1ccc(C(=O)NCc2ccc3[nH]c(C)cc3c2)cc1OC	inconclusive: 32.9%		
O=C(CN1CCCC1)NCC(=O)Nc1ccc(F)cc1	inconclusive: -2.89%		
O=C(NCC(c1ccco1)N1CCCC1)c1cn(-c2ccccc2)nc1-c1ccc(F)cc1 (configuration not stated)		inconclusive: 0.103 µM [activator, full curve, poor fit]	
COc1ccc(OC)c(C2=NOC(C(=O)NCc3ccco3)C2)c1 (configuration not stated)		inconclusive: 29.1 µM [activator, single point]	

# From PubChem BioAssay AID2685 (National Center for Advancing Translational Sciences (NCATS), 2010)
